In the supplement of paper PMC5407854, “Inhibitor of ppGalNAc-T3-mediated O-glycosylation blocks cancer cell invasiveness and lowers FGF23 levels” (eLife, 2017):
The other results are listed elsewhere or left out. Most entries show no effect beyond the scatter of the controls.

Test system: ppGalNAc-T2 sensor
Assay: T2 sensor activation Q score (MG/GFP ratio z-score vs DMSO controls) (SD units); higher = more sensor activation (inhibition of ppGalNAc-T2 glycosylation)
Conditions: HEK293 sensor cells; 10 µM; 6 h
Protocol: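 Cells were treated with compound at 10 uM for 6 h, then MG/GFP ratio was read by flow cytometry (10,000 cells per well, duplicate wells). Q = (R - R_neg)/SD_neg relative to DMSO vehicle controls; the signal rises when the glycosyltransferase is inhibited.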

SMILES | T2 sensor activation Q score
Oc1ccc(CN2CCN(c3ccccc3)CC2)cc1 | -0.08
CCOc1ccccc1N1CCN(Cc2ccccc2C)CC1 | 0.195
COc1cc(CN2CCN(C)CC2)c([N+](=O)[O-])cc1OC | -0.315
CCN1CCN(Cc2c(Cl)cccc2Cl)CC1 | 0.395
CN1CCN(c2ccc(Cl)cc2[N+](=O)[O-])CC1 | 1.58
COc1cccc(CN2CCN(Cc3ccccc3)CC2)c1 | -0.39
c1ccc(CN2CCN(Cc3ccc4c(c3)OCO4)CC2)cc1 | -0.47
Clc1ccc(N2CCN(Cc3ccc4c(c3)OCO4)CC2)cc1 | -0.885
OCCN1CCN(Cc2ccccc2)CC1 | -0.865
COc1cccc(CN2CCN(c3ccccc3)CC2)c1 | -1.19
Oc1ccc(CN2CCN(c3cccc(Cl)c3)CC2)cc1 | 0.11
C=CCOc1ccccc1CN1CCN(c2ccccc2F)CC1 | 0.785
Cc1ccccc1CN1CCN(c2ccc([N+](=O)[O-])cc2)CC1 | 0.215
C/C=C(\C)CN(C)CCc1ccccn1 | -0.91
Cc1ccccc1CN1CCN(c2ccc(F)cc2)CC1 | -0.195
CC(NC(=O)C(Cl)(Cl)Cl)c1ccccc1 (stereo not given) | 0.38
CN1CCN(Cc2ccc(Cl)cc2)CC1 | 1.18
Fc1cccc(CN2CCN(c3cccc(Cl)c3)CC2)c1 | 0.235
Cc1ccc(C)c(CN2CCN(c3ccccc3)CC2)c1 | -0.38
CCN1CCN(Cc2cccc(F)c2)CC1 | -1.08

SMILES | T2 sensor activation Q score
CCOc1ccccc1N1CCN(Cc2cccc(C)c2)CC1 | 0.655
CCOc1ccccc1N1CCN(Cc2ccccc2F)CC1 | 0.02
COc1ccc(N2CCN(Cc3ccc(Br)cc3)CC2)cc1 | 0.35
CN1CCN(Cc2cccc(Cl)c2)CC1 | 0.32
COc1ccccc1N1CCN(Cc2cccc(Cl)c2)CC1 | 0.08
O=[N+]([O-])c1ccc(N2CCN(Cc3cccc(Br)c3)CC2)cc1 | 0.155
Cc1ccccc1N1C(=O)CC(=O)NC1=O | -0.57
Cc1cccc(CN2CCN(Cc3ccc4c(c3)OCO4)CC2)c1 | -0.515
COc1ccc(CN2CCN(c3ccccc3Cl)CC2)c(OC)c1 | 0.535
CN1CCN(Cc2ccc([N+](=O)[O-])o2)CC1 | 0.455
Fc1ccc(F)c(CN2CCN(c3ccccc3F)CC2)c1 | 0.735
Cc1ccc(CN2CCN(c3ccccc3C)CC2)cc1 | 0.035
O=[N+]([O-])c1ccc(N2CCN(Cc3ccc(Cl)cc3)CC2)cc1 | -0.375
Fc1ccc(CN2CCN(c3ccccc3)CC2)cc1Br | 0.87
COc1ccc(CN2CCN(c3ccccc3F)CC2)cc1 | -0.94
Brc1ccc(CN2CCN(c3ccccc3)CC2)cc1 | -1.03
CN1CCN(Cc2ccc(N(C)C)cc2)CC1 | -0.49
CN1CCC(N2CCOCC2)CC1 | -0.155
CCN1CCN(Cc2ccc([N+](=O)[O-])cc2)CC1 | -0.425
Cc1ccccc1N1CCN(Cc2ccc([N+](=O)[O-])cc2)CC1 | -0.39

Looked up one by one from the list above (3):
SMILES | T2 sensor activation Q score
Oc1ccc(CN2CCN(c3ccccc3)CC2)cc1 | -0.08
CN1CCN(c2ccc(Cl)cc2[N+](=O)[O-])CC1 | 1.58
CN1CCN(Cc2cccc(Cl)c2)CC1 | 0.32
